Test results published in publication PMC3352087.
Residue numbers refer to the chain shown, from its start. In names and notes the source's numbering stands. No constants are given. Whether binding was seen depends on the method and setting. Some binding calls cover weakened binding; strength is not graded here.

T1: Cnd2 (S. pombe) (UniProt Q9Y7R3)
T1 sequence: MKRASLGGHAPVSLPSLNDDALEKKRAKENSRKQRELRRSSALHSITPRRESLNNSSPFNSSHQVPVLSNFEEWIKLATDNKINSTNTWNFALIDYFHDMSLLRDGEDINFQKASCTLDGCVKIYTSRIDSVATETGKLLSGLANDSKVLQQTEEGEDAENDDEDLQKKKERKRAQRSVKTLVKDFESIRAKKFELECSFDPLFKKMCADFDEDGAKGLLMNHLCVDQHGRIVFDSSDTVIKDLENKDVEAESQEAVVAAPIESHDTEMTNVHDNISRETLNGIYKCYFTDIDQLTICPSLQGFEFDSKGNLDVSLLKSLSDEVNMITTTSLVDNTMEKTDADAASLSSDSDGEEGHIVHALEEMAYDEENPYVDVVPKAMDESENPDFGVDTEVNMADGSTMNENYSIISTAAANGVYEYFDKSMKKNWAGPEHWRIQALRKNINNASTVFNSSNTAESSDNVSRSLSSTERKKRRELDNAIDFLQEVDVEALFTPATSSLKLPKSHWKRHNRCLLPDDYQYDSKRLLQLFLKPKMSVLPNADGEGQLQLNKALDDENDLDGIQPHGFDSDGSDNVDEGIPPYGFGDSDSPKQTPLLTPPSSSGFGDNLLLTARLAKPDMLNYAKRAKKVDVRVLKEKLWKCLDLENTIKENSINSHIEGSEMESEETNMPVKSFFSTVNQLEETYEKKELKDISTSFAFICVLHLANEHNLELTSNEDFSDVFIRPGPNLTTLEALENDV

T2: Cut3 (S. pombe) (UniProt P41004)
T2 sequence: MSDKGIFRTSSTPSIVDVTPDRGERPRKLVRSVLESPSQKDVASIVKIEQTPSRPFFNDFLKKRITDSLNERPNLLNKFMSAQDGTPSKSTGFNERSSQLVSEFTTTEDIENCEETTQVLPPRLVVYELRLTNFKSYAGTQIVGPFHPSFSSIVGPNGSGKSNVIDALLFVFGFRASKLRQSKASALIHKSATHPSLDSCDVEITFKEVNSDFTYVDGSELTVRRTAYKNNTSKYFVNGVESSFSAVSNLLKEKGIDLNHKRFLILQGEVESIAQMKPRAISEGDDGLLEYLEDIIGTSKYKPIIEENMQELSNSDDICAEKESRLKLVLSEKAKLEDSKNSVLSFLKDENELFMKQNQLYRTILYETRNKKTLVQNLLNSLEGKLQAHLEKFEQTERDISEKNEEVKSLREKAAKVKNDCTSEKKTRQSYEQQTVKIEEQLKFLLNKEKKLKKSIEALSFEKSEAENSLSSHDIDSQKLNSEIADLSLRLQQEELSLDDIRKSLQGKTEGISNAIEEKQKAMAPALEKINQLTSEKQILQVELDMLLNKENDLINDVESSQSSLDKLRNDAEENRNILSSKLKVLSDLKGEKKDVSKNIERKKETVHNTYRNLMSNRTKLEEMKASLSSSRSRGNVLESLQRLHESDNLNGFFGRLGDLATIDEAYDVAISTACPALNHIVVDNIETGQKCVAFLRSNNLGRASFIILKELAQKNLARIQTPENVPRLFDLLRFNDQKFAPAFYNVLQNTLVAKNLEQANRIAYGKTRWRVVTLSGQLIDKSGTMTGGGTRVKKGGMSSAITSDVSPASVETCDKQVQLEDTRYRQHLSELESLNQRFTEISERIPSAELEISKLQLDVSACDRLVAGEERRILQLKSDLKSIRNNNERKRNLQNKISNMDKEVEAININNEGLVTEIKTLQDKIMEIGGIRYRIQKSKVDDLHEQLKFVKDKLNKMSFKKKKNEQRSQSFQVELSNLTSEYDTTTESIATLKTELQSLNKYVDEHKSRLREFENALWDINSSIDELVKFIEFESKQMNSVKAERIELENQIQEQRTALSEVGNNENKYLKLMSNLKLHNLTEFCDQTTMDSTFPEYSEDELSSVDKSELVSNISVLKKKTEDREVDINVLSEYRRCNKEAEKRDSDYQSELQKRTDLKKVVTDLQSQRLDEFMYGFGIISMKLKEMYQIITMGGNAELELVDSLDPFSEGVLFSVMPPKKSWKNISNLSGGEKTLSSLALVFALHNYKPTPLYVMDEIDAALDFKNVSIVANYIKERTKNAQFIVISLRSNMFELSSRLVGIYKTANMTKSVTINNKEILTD

B1: Cnd3 (protein, UniProt Q10429 1-875)
chain: MSCIQIISSSQTSIAGHRKLCNKLFTLRTQEGFETDILRALNIILTVKKGNSNADRVLRFLVTFVNYLQQKDPEIDIVQPILKHILRGLDAKDKTVRYRCCQIIARVVNCVKEIDDDLYNTLKEKLLSRVLDRESIVRLEAVVALSRLQEDTGDEENDVRNILLFLLQNDPSSEVRRSVLLNIEVSNSTLPFILERARDVDAANRKCVYARVLPKIGDFRYLSIKKRVRILKWGLNDRDESVEKAAADMLAYQWIENADNNLLELLERLDVSNNSDVAVLAIKKFFDVRVDSLSQLEFPEQFWLELTAESSLLARTFNEICIEKNYTDLLDKMPEVVQLTYYIERQYVSLRDKSSYDESCFIIEQLLYIGLSQDMVDEIGRRKLLKSLTNSLSTMALPDSLISLHIELLRKLCSSENDFCSLLVEIITEVFEQGHSQNQTEEQGNSNAPELNKNDYEGEEITVSQKSPSPSLPPNELNEPEPDDMDGYKEAFNELRCLSYVQCLFENITSSLNENLYMVDMLKTLIIPAVRSHDLPIREKGLECLSLVCLLNADLAFENVPLYLHCYEKGSVVLKCTAIRTLTDMLIQHGKAKFTEYEDAISSILFEALGEFENAELQTLGAEAIAKLLVILHYRDELFLKPLIIQYFEPNTVDNHALRQVLGYFFPVYAFGAHENQWRIATIFCDALLSLLEIYRDLDEDDVQLSIGHIAQQMLDWTDNEKLYERKTQTGDDYIALNHNVHLHLANMIFESLPNASEGKERKFMISLLGKLKIPTDLPSSDYQRTKRKLETYESHGFTMDSTSLSILAKFERMLLQNEEARSKFEETEEERLMENAEENEHAGAEAISGEIIPDTVEANMEDEEEVYVKQEEDL
B2: Cnd1 (protein, UniProt O94679 1-1158)
chain: MSLDLLSRLKKYIHDEENSDLDSIYAECENAGLTAVVNDVIDTLLLGTSSCFDEDCLEKLFAICSHFADLSSSVRNKVYDLLTSNISSESAILEDMISANATDFTVPQTNLETTGIAFQLTVNSLSSSNQLSVIRSSTNTVKGRKKNPTTNSNWNGISHVNALLDAIITLFQKKLSRVWTTSSERDMFLSLFLKPIYTLMESEINIKNASFRSRLFNIIGLAVQFHNHTTAAETNIIQNLQYFEHLSEYAADLVHIVTVQFNSVTLAEGIIRTLCSLEFNDNDVKGPKQVALFLVRLSSLIPNLCLKQLTQLVKLLDSESYTLRCAIIEVLANVVIDQIHDEAQNEMSESVPATVQSLMDLLSERLLDISPYCRTKVLHVFIKIFDLPIKYPRKRQEIAELVIRCLQDRSSHVRRNAIKLFSKLLTTHPFSVMHNGLLTRNIWEKGLSIIEEQLNSLQPKQQEKVVDSELEVDENLLEDATMIQDDESHEGESHLENSLSEYVDSVPAEEIVKVNLTKRFYLEALQYIDIVEAGAKIISQLLFAKNKSEVIESMDFFVFCNSFGISSSKLYIKKMIHLIWVKGTSDEGNNIQNHVLSCYKTLFFEPPPNSGTNEAANYIARNLISLTYDASLAELTSLEQMLCILMKDGYFSHLVITKLWQVYSYQKKDISRTQRRGSIIVIGMLALGNTDVVMQGLDHLIQIGLGPPGLEDLVLARYTCIAIKRIGKDASGSSNINFPNSHTLCQKLCMLLLRPSFSEEWFGLEEQAIEAIYAVAKHPDELCTNIILLLTKQLFKPSNHENTTSNDDHAMDEDLDDSPEEETLKDEEEIGIRLAHLIFLVGHVAIKQLVYIEYCEAEFKRRKADAERLAVQNSNNPINGQETSEYDLITGTSEDDFSEAMTFIRERELLYGENSLLSRFAPLVVELCSNHKSHNNQSLLLAASLTLSKFMCLSNNFCMEHLPLLITILEKCDNPIIRNNLVIGLADLTVCFNHFIDEISEYLYRRLMDEESSVKKTCFMTLAFLILAGQIKVKGQLGIMARSLEDEDARISDLARMFFTDFAAKDNSVYNNFIDIFSVLSRSAEEQDEDDAKFKRIIRFLTSFIEKERHTKQLAERLAARLDRCKTQRQWDHVVYALSLLPHKADNIQKLIDDGYHE
B3: Cut14 (protein, UniProt P41003 1-1172)
chain: MKIEELIIDGFKSYAVRTVISNWDDQFNAITGLNGSGKSNILDAICFVLGITNMSTVRAQNLQDLIYKRGQAGITRASVTIVFNNRDPASSPIGFENHPQVSVTRQIIMGGTSKYLINGHRALQQNVQNLFQSVQLNINNPNFLIMQGRITKVLNMKATEILSMIEEASGTRMFEERKEKAFRTMQRKEAKVEEINTLLREEIEPRLTKLRTEKKTFLEYQHIYNDLERLSHLCTAYDYYKLSLKVEELTVQASQKHSHIAEMESSLQTSKQEVLILKEKIKKIEDERMRQMSVSSDRTLDSQLQTVNENITRISTSIELKNTALEEEHGDLQQIRGKAKELETLLRGKRKRLDEVLSVYEKRKDEHQSISKDFKSQEELISSLTTGLSTTEGHETGYSRKLHEARDTLNDFKAEKETNRLKLEGLNKQISLTKPKKAEATKRCDQLNREIDILQNHVEKLKMSLKNTNSDITGEDVLQQKLKQLAKDRGNLLNELDALKSKLAYMEFTYTDPTPNFDRSKVKGLVAQLLTLNEENYDKQTALEITAGGRLYNLIVETEKIGAQLLQKGNLKRRVTIIPLNKITSFVASAERVGAAKKISNNKAQLALELIGYDDELLPAMQYVFGSTLVCDTPESAKKVTFHPSVKLKSVTLDGDVYDPSGTLTGGSVNKSAGPLLQIQKLNSLQLKLQVVTSEYEKLETQLKDLKTQNANFHRLEQEIQLKQHELTLLIEQRETDSSFRLLSDYQQYKDDVKDLKQRLPELDRLILQSDQAIKKIERDMQEWKHNKGSKMAELEKEFNQYKHKLDEFTPILEKSENDYNGVKLECEQLEGELQNHQQSLVQGESTTSLIKTEIAELELSLVNEEHNRKKLTELIEIESAKFSGLNKEIDSLSTSMKTFESEINNGELTIQKLNHEFDRLEREKSVAITAINHLEKENDWIDGQKQHFGKQGTIFDFHSQNMRQCREQLHNLKPRFASMRKAINPKVMDMIDGVEKKEAKLRSMIKTIHRDKKKIQDTVKSIDRFKRSALEKTWREVNSSFGEIFDELLPGNSAELQPPENKEFTDGLEIHVKIGSIWKDSLAELSGGQRSLVALALIMSLLKYKPAPMYILDEIDAALDLSHTQNIGRLIKTKFKGSQFIIVSLKEGMFTNANRLFHVRFMDGSSVVQAR
B4: Cut14-Y1 mutant protein (L543S) (protein, UniProt P41003 1-1172)
chain: B3 chain with L543S
B5: Cnd2 (protein, UniProt Q9Y7R3 1-742)
chain: T1 sequence

target: T1, Cnd2 (S. pombe); experiment: co-purification (affinity chromatography, SDS-PAGE); subunits simultaneously overexpressed in S. pombe cells; complexes purified as in refs 20,21; SDS-PAGE stained with Coomassie brilliant blue; bait and tag not stated

binding	Binder
binds	B1
binds	B2

target: T2, Cut3 (S. pombe); experiment: as above

binding	Binder
binds	B3
binds	B4
binds	B1
binds	B5
binds	B2
